Test results taken from patent publication US6921665B2, “Selective antibody targeting of undifferentiated stem cells” (Roslin Institute (Edinburgh), priority 2001, dated 2005).
For at least one compound, name, drawing or mass did not settle the structure.

System: hTERT expression
Assay: RT-PCR for hTERT expression after differentiation factors
Type: cell-based, human
Details: after exposure of hES cells to the factor
Procedure: For radioactive relative quantification of individual gene products, QuantumRNA™ Alternate18S Internal Standard primers (Ambion, Austin Tex., USA) were employed according to the manufacturer's instructions. Briefly, the linear range of amplification of a particular primer pair was determined, then coamplified with the appropriate mixture of alternate18S primers:competimers to yield PCR products with coinciding linear ranges. Before addition of AmpliTaq™ (Roche) to PCR reactions, the enzyme was pre-incubated with the TaqStar™ antibody (ProMega) according to manufacturer's instructions. Radioactive PCR reactions were analyzed on 5% non-denaturing polyacrylamide gels, dried, and exposed to phosphoimage screens (Molecular Dynamics) for 1 hour. Screens were scanned with a Molecular Dynamics Storm 860 and band intensities were quantified using ImageQuant™ software. Results are expressed as the ratio of radioactivity incorporated into the hTERT or OCT-4 band, standardized to the radioactivity incorporated into the 18s band.
Primers and amplification conditions for particular markers are as follows. […]

In the case of `CC1=C(/C=C/C(C)=C/C=C/C(C)=C/C(=O)O)C(C)(C)CCC1` [retinoic acid], the “expression of hTERT” value is reported as “markedly decreased”.
